# Small-molecule microarray binding calls

Source: the ROBIN nucleic acid binder screens (doi:10.1002/anie.202211358).

Oligonucleotides screened, 5′ to 3′:
TPP: TPP riboswitch RNA three-way junction, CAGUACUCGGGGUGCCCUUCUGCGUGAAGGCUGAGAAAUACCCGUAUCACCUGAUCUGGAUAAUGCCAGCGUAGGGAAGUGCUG. About 24,000 compounds screened, about 160 hits.
PreQ1: PreQ1 riboswitch RNA pseudoknot, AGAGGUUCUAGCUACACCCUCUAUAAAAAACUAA. From B. subtilis. About 24,000 compounds screened, about 170 hits.

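Compounds were printed on reactive glass slides in duplicate spots, a dye-labelled oligonucleotide was laid over them, and the fluorescence left after washing was read. For the PreQ1, TPP and SAM-II riboswitches the laboratory earlier reported (doi:10.1038/s41467-019-09493-3) 1 µM RNA, 2 h, and a rule that included a mean Z-score above 3 (spot signal-to-noise against the whole library), a score well above that on a control array, and duplicate spots agreeing (coefficient of variation under 100). The data file gives only the calls; its cut-offs may differ, and compounds hitting several targets are kept. These are primary screening calls, not affinities; a compound without a hit may have attached poorly or may still bind in solution.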 Key: active = hit, inactive = tested without a hit. Compounds were drawn at random from those tested, without regard to their results.

Calls for O=C(Nc1cc(C(=O)N2CCCC2)ccc1Cl)N1C[C@H]2CC[C@@H](C1)NC2 are TPP: inactive; PreQ1: inactive. Calls for Cc1ccc(OCCn2c(C(C)O)nc3ccccc32)cc1 (stereo not given) are TPP: inactive; PreQ1: inactive. c1csc(CN2CCC(n3ccnc3-c3cc4n(n3)CCCNC4)CC2)c1 was scored TPP: inactive; PreQ1: inactive. Calls for Clc1ncnc2[nH]ccc12 are TPP: inactive; PreQ1: inactive. Clc1ccc(-c2noc(-c3cccnc3NC3CCCCC3)n2)cc1 was scored TPP: inactive; PreQ1: inactive. c1ccc(-n2nnnc2SCCNCc2ccco2)cc1 was scored TPP: inactive; PreQ1: inactive. CCCCOC(=O)C1=C(N)OC2=C(C(=O)CC(C)(C)C2)C12C(=O)Nc1ccccc12 (stereo not given) was scored TPP: inactive; PreQ1: inactive.

With CCn1c2ccccc2c2cc(CN3CCC(N4CCN(CCO)CC4)CC3)ccc21 the screen gave TPP: inactive; PreQ1: inactive. Calls for CCCN[C@H]1CCc2nc(N)sc2C1 are TPP: inactive; PreQ1: inactive. For CC(C)C(=O)Oc1ccc(CO)cc1[C@H](CCN(C(C)C)C(C)C)c1ccccc1 the calls were TPP: inactive; PreQ1: inactive. For O=C(CCc1cc2n(n1)CCCNC2)N1CCN(CCn2cncn2)CC1 the calls were TPP: inactive; PreQ1: inactive. CC(c1ccccc1)c1nnc(N)s1 (stereo not given) was scored TPP: inactive; PreQ1: inactive. With CC(=O)SC[C@@H](C)C(=O)N1CCC[C@H]1C(=O)N[C@@H](Cc1ccccc1)C(=O)O the screen gave TPP: inactive; PreQ1: inactive. COC1CCN(S(=O)(=O)N2CCNC(C(=O)O)C2)CC1 (stereo not given) was scored TPP: inactive; PreQ1: inactive.

Calls for CC(C)Cc1cc(C(=O)N(CCCO)Cc2ccncc2)n(C)n1 are TPP: inactive; PreQ1: inactive. For Cc1nn2c(ncc3c(N)ncnc32)c1-c1ccccc1 the calls were TPP: inactive; PreQ1: inactive. CCOc1ccc(NCC2CCOC(C)(C)C2)cc1 (stereo not given) was scored TPP: inactive; PreQ1: inactive. Cn1ncc2c(Nc3cccc(Cl)c3)nc(N3CCCCC3)nc21 was scored TPP: inactive; PreQ1: inactive. For COCCC1(C(=O)O)CCCN(C(=O)c2cnc(N)nc2C)C1 (stereo not given) the calls were TPP: inactive; PreQ1: inactive. With CSc1ccc(CN(CCO)C(=O)c2cnc(C3CC3)nc2O)cc1 the screen gave TPP: inactive; PreQ1: inactive. For COc1cc(C2CC(=O)Nc3c2ccc2ccccc32)ccc1OCCO (stereo not given) the calls were TPP: inactive; PreQ1: inactive.

Calls for CN(C)CCc1c[nH]c2ccc(C[C@H]3COC(=O)N3)cc12 are TPP: inactive; PreQ1: inactive. C=CCN(C(=O)c1cccc(NCC(=O)O)c1)C1CCCC1 was scored TPP: inactive; PreQ1: inactive. With COC(=O)C1=C(N)OC(c2ccccc2)=C(C(C)=O)C12C(=O)Nc1ccc(Br)cc12 (stereo not given) the screen gave TPP: inactive; PreQ1: inactive. For Nc1ccc(C(=O)c2cc3c(ccc4ccccc43)[nH]2)cc1 the calls were TPP: inactive; PreQ1: inactive. Calls for CCOC(=O)C1CCCN(c2c(NCCN3CCCCC3CC)c(=O)c2=O)C1 (stereo not given) are TPP: inactive; PreQ1: inactive. With Cn1c(CNc2ccc(C(=N)N)cc2)nc2cc(C(=O)N(CCC(=O)O)c3ccccn3)ccc21 the screen gave TPP: inactive; PreQ1: inactive. For O=C1C(Cl)=C(NCCN2CCOCC2)C(=O)c2ncccc21 the calls were TPP: inactive; PreQ1: inactive.

CC(=O)Nc1ccc(Cc2nc3c([nH]2)c(=O)n(C)c(=O)n3C)cc1 was scored TPP: inactive; PreQ1: inactive.

For reference, 3 entries once more:

{"compound": "Clc1ccc(-c2noc(-c3cccnc3NC3CCCCC3)n2)cc1", "TPP": "inactive", "PreQ1": "inactive"}
{"compound": "CC(=O)Nc1ccc(Cc2nc3c([nH]2)c(=O)n(C)c(=O)n3C)cc1", "TPP": "inactive", "PreQ1": "inactive"}
{"compound": "CCOc1ccc(NCC2CCOC(C)(C)C2)cc1", "stereo": "stereo not given", "TPP": "inactive", "PreQ1": "inactive"}